These are yes or no findings as the source states them, for the method shown. For part of these data: Where a sequence is shown, tags or fusion partners need not be part of it.
Assays:
[1] = target: T1, GST-Ulp2-SIM (Ulp2-717-734) (yeast) (UniProt P40537); assay: pull-down
T1 sequence: NYDDDDEEIQIIENIDQS

By UniProt entry, the sequences of proteins in these tests, tags left out. Where a name states a change or a piece, a line headed by the entry shows the natural chain unless it says otherwise.
UniProt P40537: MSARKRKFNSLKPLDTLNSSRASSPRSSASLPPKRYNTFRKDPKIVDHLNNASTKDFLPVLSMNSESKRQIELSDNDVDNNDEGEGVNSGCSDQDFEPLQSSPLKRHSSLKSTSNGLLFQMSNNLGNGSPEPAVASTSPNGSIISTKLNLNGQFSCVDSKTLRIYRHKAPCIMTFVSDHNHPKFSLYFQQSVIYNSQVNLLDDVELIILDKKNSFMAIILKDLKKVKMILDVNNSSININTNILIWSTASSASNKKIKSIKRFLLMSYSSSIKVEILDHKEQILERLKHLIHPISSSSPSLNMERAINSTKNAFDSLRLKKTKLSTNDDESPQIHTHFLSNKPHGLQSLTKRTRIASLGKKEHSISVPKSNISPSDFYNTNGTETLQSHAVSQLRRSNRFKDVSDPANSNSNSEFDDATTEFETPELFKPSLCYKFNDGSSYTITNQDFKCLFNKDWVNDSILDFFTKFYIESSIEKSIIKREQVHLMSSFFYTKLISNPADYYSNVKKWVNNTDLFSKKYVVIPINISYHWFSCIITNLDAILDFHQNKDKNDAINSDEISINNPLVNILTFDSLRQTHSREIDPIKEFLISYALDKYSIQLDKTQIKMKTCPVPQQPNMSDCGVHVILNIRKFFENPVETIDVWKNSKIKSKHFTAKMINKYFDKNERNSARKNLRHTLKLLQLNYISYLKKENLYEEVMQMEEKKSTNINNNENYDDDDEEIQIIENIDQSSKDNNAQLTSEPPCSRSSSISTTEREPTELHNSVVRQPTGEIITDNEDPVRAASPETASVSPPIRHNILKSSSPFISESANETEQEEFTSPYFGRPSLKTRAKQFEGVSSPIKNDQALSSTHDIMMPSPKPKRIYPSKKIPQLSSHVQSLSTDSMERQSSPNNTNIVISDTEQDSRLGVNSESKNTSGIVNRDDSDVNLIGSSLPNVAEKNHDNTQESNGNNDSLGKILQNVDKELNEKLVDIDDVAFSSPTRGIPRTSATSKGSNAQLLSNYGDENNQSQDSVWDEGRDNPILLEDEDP
UniProt Q12748: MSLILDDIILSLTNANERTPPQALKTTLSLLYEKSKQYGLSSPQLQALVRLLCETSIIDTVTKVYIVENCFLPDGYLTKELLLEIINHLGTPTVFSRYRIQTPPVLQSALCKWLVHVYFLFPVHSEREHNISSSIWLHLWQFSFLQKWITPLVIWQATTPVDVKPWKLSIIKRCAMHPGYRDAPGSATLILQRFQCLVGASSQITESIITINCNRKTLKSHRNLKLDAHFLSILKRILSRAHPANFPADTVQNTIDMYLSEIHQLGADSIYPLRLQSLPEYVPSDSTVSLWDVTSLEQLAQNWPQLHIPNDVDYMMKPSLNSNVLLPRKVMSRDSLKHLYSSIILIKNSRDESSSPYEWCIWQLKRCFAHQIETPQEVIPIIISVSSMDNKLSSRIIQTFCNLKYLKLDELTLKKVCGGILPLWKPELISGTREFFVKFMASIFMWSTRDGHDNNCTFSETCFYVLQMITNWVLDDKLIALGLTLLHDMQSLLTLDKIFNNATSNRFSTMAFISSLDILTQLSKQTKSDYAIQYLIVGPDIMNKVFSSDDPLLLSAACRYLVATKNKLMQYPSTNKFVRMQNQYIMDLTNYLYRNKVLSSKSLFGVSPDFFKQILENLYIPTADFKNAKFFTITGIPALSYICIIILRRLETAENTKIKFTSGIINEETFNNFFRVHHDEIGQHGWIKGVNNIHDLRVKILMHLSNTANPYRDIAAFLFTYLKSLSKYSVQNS
UniProt Q12262: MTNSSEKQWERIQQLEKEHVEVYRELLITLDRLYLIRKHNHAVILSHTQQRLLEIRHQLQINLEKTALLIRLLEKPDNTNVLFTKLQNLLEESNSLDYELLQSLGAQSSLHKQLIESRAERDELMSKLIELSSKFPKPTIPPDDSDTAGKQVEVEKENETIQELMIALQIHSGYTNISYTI
UniProt P47167: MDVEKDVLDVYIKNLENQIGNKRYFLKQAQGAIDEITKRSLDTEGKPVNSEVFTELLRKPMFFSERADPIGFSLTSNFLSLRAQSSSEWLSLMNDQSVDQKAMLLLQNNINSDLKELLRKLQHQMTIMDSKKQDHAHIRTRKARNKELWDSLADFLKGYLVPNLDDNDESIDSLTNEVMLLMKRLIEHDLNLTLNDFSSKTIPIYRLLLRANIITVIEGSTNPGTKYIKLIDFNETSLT

[2] = target: T2, GST-Ulp2-927-937 with 3A substitutions (V931A,L933A,I934A) (yeast) (UniProt P40537); assay: pull-down
T2 sequence: DDSDANAAGSS

[3] = target: T3, FITC-Ulp2-KIM peptide (fITC-AHA-…; Ulp2-927-937) (yeast); assay: fluorescence polarisation
T3 sequence (peptide, fITC-AHA on the N-terminus): DDSDVNLIGSS

Substance | binding [1] | binding [2] | binding [3]
Ctf3 complex (Ctf3, Mcm16, Mcm22), wild type, recombinant (from UniProt Q12748;Q12262;P47167) | no binding | no binding | –
Ctf3c containing the Ctf3-2A protein (Ctf3-R594A,K596A) (from UniProt Q12748;Q12262;P47167) (complex) | – | – | no binding

Source: article doi:10.1101/2020.12.30.424835 (bioRxiv, 2020)
